The text below walks through data of the supplement of paper PMC12823440, “Inhibitors supercharge kinase turnover through native proteolytic circuits” (Nature, 2025).

Chains of the proteins cited; added tags and fusions are not shown. Lines headed by an entry give the natural chain unless they say otherwise; changes in a name come on top.
UniProt Q8IWU2: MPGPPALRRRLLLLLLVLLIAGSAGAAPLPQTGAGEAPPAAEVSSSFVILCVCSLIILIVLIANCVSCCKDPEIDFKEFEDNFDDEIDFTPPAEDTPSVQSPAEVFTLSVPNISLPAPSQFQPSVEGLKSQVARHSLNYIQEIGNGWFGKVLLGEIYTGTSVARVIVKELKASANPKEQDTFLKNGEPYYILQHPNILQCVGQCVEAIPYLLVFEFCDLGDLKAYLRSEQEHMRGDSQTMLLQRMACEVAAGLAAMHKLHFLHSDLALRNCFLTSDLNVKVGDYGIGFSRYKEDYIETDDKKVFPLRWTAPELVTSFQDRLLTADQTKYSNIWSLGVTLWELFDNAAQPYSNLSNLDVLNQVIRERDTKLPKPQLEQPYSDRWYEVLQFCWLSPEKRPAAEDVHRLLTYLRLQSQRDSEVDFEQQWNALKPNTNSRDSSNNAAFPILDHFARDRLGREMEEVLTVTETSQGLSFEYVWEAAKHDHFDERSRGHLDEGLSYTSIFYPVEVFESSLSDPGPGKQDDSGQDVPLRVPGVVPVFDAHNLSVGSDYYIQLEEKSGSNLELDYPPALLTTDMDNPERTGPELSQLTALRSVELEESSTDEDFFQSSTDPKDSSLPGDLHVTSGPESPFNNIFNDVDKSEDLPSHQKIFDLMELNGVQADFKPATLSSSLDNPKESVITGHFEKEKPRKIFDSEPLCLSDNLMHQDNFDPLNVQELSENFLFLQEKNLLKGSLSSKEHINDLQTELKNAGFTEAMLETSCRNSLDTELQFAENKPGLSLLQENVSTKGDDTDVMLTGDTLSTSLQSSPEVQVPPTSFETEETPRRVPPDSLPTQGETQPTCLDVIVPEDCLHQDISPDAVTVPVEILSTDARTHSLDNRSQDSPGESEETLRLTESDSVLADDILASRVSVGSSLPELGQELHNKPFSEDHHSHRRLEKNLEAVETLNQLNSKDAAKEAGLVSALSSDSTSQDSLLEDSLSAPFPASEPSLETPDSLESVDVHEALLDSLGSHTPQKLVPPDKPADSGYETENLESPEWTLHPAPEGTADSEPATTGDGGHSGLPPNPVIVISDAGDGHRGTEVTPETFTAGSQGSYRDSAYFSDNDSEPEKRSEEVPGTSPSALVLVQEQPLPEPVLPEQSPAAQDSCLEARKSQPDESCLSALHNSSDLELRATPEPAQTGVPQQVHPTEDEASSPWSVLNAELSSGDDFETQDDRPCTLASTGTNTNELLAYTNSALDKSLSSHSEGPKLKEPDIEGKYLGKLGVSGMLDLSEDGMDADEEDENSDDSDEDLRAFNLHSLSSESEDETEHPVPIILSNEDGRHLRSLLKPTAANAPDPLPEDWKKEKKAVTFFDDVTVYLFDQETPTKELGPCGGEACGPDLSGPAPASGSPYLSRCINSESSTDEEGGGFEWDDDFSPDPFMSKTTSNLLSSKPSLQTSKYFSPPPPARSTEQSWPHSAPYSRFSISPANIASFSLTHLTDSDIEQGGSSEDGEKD

Counter-ions that a name gives are not always drawn. The list shows a part of the results. The calls rarely recur for the same compound in another form.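 Kinases were expressed as nanoluciferase fusions in K562 cells and luminescence was read every 4 h between 2 and 18 h as percent of control, DMSO set to 100% and a positive control to 0%. A time point counts as decreased when the signal drops significantly (2 sigma). The hit call is the authors' own, does not follow from the count of time points alone, and its rule is not shown.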

The target in the assay is LMTK2 (UniProt Q8IWU2). Kind of assay: number of time points (of 5) at which kinase-Nluc abundance scored as decreased, DMSO-normalised (count); higher = more persistent destabilization. The settings on record: K562; 2-18 h.
`C=C(CCC=C(C)C)[C@H]1CC[C@]2(C)[C@@H]1[C@H](O)C[C@@H]1[C@@]3(C)CC[C@H](O[C@@H]4O[C@H](CO)[C@@H](O)[C@H](O)[C@H]4O[C@@H]4O[C@H](CO)[C@@H](O)[C@H](O)[C@H]4O)C(C)(C)[C@@H]3CC[C@]12C` [Ginsenoside Rk1] (10 µM): the “number of time points” value was determined as 0. As to `CCn1c(=O)c(-c2ccc(-c3cncs3)cc2Cl)cc2cnc(Nc3ccc(N4CCN(C)CC4)cc3)nc21` (2.5 µM), the “number of time points” value turned out to be 0. The figure for `Nc1nccc(Oc2ccc(NC(=O)c3cn(COP(=O)(O)O)cc(-c4ccc(F)cc4)c3=O)cc2F)c1Cl` (10 µM) is 0. As for `Cc1cc(-c2cc(OC(=O)c3ccccc3)ccc2Cl)cc2nnc(Nc3ccc(OCCN4CCCC4)cc3)nc12` (0.5 µM), the “number of time points” value is 0. `OC[C@H]1O[C@@H](Oc2cc3c(O)cc(O)cc3[o+]c2-c2cc(O)c(O)c(O)c2)[C@H](O)[C@@H](O)[C@@H]1O` [Delphinidin 3-glucoside (chloride)] (10 µM): the “number of time points” value came out at 0. Regarding `O=C(/C=C/c1ccc(O)c(O)c1)c1ccc(O[C@@H]2O[C@H](CO)[C@@H](O)[C@H](O)[C@H]2O)c(O)c1O` [Marein] (10 µM), the “number of time points” value came out at 0. As for `O=C1Nc2nc(-c3c(O)cccc3OCC3CC3)cc([C@@H]3CCCNC3)c2CO1` [Bay 65-1942 (hydrochloride)] (10 µM), the “number of time points” value was determined as 1. Turning to `CC(C)CN(CC(=O)N1CCN(CC(OCc2ccc3ccccc3c2)c2ccc(Cl)cc2Cl)CC1)CC(C)C` (centres undefined) [LYN-1604 (dihydrochloride)] (2.5 µM), the “number of time points” value was 0. As to `CCc1cc(O)c(F)cc1-c1ccc2c(-c3nc4c([nH]3)CN(C3CCN(C)CC3)CC4)n[nH]c2c1` [JAK-IN-5 (hydrochloride)] (2 µM), the “number of time points” value worked out at 0. Turning to `Cc1ccc(Nc2cc(-c3cccc(N4C(=O)c5ccccc5C4=O)c3)ncn2)cc1NS(C)(=O)=O` (10 µM), the “number of time points” value came out at 1. The figure for `C=C1C(=O)O[C@@H]2C[C@@]3(C)CCC[C@H](C)C3=C[C@H]12` [Alantolactone] (10 µM) is 0; for `C=C(C)C(=O)Nc1cccc(-c2ncnc3[nH]cc(C(=O)OCC)c23)c1` (10 µM) it is 0. Consider `CNc1nc(Nc2cnn(C3CCN(C4COC4)CC3F)c2Cl)ncc1C(F)(F)F` (centres undefined) (10 µM), for which the “number of time points” value turned out to be 0. With `Cc1cc(Nc2cc(Cl)nc(Oc3ccc([N+](=O)[O-])cc3)n2)n[nH]1` [Autophinib] (2.5 µM), the “number of time points” value amounted to 0.

Take `CC(C)=CC[C@H](O)C1=CC(=O)c2c(O)ccc(O)c2C1=O` [(-)-Alkannin] (2.5 µM): the “number of time points” value is 0. Take `CNCc1ccccc1-c1csc([C@@H](C)Nc2nc(C)nc3cc(OC)c(OC)cc23)c1` (2.5 µM): the “number of time points” value is 0. In the case of `COc1ncc(-c2nc(N3CCOCC3)nc3c(CN4CCC(C(C)(C)O)CC4)cc(F)cc23)cc1NS(C)(=O)=O` [Linperlisib] (10 µM), the “number of time points” value stood at 0. Consider `O=C(Nc1ccc(F)cc1F)[C@H](NC(=S)Nc1cc(C(F)(F)F)cc(C(F)(F)F)c1)c1ccccc1` (2.5 µM), for which the “number of time points” value came to 0. `O=C1NC(=O)C(=Cc2ccc(-c3ccc(F)cc3)o2)S1` (stereo in doubt) (10 µM): the “number of time points” value was determined as 0. On to `CCOc1cc(C(=O)N2CCC(N3CCN(C)CC3)CC2)ccc1Nc1ncc2c(n1)N(C1CCCC1)c1ccccc1C(=O)N2C` (10 µM), for which the “number of time points” value amounted to 0. For `OC(COc1ccc(C(F)(F)F)cc1)CN(Cc1ccccc1)Cc1ccccc1` (centres undefined) (2.5 µM), the “number of time points” value was determined as 0. Regarding `C[C@@H]1C(=O)O[C@H](C)[C@H]1C[C@@H](O)[C@](C)(O)[C@H]1CC[C@@]2(O)C3=CC(=O)[C@@H]4C[C@@H](O)[C@@H](O)C[C@]4(C)[C@H]3CC[C@]12C` [Cyasterone] (10 µM), the “number of time points” value came to 0. In the case of `Cc1c(CN2CCN(C(=O)[C@H](C)O)CC2)sc2c(N3CCOCC3)nc(-c3cnc(N)nc3)nc12` [Apitolisib] (10 µM), the “number of time points” value was found to be 0.

Take `CC(C)(C)NC(=O)c1cncn1C1CCN(c2ccc(-c3nnc(C(F)(F)F)o3)cn2)CC1` (10 µM): the “number of time points” value is 1. The figure for `NCc1ccc(Nc2ncc(F)c(Nc3ccccc3)n2)cc1` (10 µM) is 0; for `COC1(c2sc3c(N4CCOCC4)nc(-c4cnc(N)nc4)nc3c2C)COC1` (2.5 µM) it is 0; for `COc1cc2c[n+](C)c3c4cc5c(cc4ccc3c2cc1OC)OCO5` [Nitidine (chloride)] (2 µM) it is 0. As to `N#Cc1ccc2ncnc(NC3CCC(N4CCOCC4)CC3)c2c1` (centres undefined) (10 µM), the “number of time points” value worked out at 0. In the case of `COc1ccc2c(c1O)OC(C)(C)c1c-2ccc2c1C(=O)N(c1ccc(C(=O)c3ccccc3)cc1)C2=O` [Ampkinone] (10 µM), the “number of time points” value came to 0.

Regarding `CC1=C2C(=O)O[C@@H](c3ccoc3)[C@]2(C)CCC1` [Fraxinellone] (10 µM), the “number of time points” value is 0. On to `CS(=O)(=O)c1ccc(-c2cnc(N)c(C(=O)Nc3ccccc3)n2)cc1` (10 µM), for which the “number of time points” value was 0. For the molecule `O=C(NC(NC(=S)Nc1ccc(F)c([N+](=O)[O-])c1)C(Cl)(Cl)Cl)C(c1ccccc1)c1ccccc1` (centres undefined) (10 µM), the “number of time points” value is 0.

Consider `COc1cc(C(N)=O)nc(-c2cccc(C#C[C@]3(O)CCN(C)C3=O)c2)c1` (10 µM), for which the “number of time points” value is 0. For `O=C(Nc1cc(Oc2cc(F)c(NC(=O)C3(C(=O)Nc4ccc(F)cc4)CC3)cc2F)ccn1)C1CC1` [Altiratinib] (10 µM), the “number of time points” value was 0. With `COc1ccc(Cl)cc1NC(=O)Nc1cc(C)nc2ccccc12` (2.5 µM), the “number of time points” value worked out at 0. As for `COc1ccc(CC(=O)Nc2nc3c(s2)CCc2ccccc2-3)cc1OC` (10 µM), the “number of time points” value amounted to 0.

For the molecule `N[C@H](Cc1c[nH]c2ccccc12)C(=O)N/N=C/c1ccc2nccnc2c1` [Rhosin (hydrochloride)] (10 µM), the “number of time points” value turned out to be 0. For `CC(C)(C)c1ccc(S(=O)(=O)Nc2ccc(-n3ccnc3)cc2)cc1` (10 µM), the “number of time points” value came out at 0. In the case of `Cc1ccc(-c2c(C(=O)CF)n(CCCO)c3ncnc(N)c23)cc1` (10 µM), the “number of time points” value stood at 0.
